A short description of this series: general procedure: peptide synthesis; BOP/HOBt/DIPEA (conjugation).

Consider “2-pyrrolino-DOX^14 -O-glt-Gln-Trp-Ala-Val-Gly-His-Leu.PSI.(CH2 --NH)Leu-NH2”, for which, where the note is “late stage modification step”, the “final purity (method not given)” value came to 98% and the step yield was 60%.

Consider “DOX^14 -O-glt-Gln-Trp-Ala-Val-Gly-His-Leu.PSI.(CH2 --NH)Leu-NH2”, for which, for the setting “conjugation step”, the conjugation yield is given as 45% and the “final purity (method not given)” value came to 98%.

These data come from patent US6184374A (priority 1998, dated 2001).
